# Test results from PMC3843111.
# Protein sequences, listed by entry. Tags and fused reporters are not part of them.
# UniProt Q8CHK4: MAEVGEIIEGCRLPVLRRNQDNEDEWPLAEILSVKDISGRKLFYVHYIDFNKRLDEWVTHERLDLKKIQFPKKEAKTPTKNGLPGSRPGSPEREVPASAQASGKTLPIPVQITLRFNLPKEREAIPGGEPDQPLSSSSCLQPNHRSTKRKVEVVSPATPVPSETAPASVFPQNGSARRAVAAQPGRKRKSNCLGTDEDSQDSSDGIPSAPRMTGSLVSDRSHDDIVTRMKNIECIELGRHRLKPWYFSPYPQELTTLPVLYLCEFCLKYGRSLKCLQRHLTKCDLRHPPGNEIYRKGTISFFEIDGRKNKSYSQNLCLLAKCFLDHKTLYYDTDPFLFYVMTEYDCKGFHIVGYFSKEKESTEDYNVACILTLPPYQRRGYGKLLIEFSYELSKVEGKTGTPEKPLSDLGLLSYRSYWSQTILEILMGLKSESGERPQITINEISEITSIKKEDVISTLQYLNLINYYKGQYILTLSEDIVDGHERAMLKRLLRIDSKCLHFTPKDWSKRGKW
# UniProt Q9DAT2: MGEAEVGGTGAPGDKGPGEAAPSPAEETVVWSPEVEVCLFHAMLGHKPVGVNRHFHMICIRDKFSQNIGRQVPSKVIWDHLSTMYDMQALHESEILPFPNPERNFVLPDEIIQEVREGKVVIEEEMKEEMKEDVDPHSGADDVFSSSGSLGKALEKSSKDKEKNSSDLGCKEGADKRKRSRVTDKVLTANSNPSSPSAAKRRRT
# UniProt P99024: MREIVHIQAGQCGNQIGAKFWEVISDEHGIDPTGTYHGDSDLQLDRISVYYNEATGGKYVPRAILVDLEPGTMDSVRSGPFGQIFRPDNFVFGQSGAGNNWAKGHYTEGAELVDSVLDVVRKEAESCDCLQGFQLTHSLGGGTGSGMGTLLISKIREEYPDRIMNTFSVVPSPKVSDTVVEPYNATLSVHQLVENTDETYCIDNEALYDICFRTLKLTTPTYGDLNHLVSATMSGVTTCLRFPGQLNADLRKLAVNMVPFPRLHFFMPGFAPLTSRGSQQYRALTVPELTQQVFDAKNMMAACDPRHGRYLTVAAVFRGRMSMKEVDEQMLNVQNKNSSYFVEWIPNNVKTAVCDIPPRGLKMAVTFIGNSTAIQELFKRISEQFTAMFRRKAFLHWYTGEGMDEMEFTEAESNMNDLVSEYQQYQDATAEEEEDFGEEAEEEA
# UniProt Q8C9X6: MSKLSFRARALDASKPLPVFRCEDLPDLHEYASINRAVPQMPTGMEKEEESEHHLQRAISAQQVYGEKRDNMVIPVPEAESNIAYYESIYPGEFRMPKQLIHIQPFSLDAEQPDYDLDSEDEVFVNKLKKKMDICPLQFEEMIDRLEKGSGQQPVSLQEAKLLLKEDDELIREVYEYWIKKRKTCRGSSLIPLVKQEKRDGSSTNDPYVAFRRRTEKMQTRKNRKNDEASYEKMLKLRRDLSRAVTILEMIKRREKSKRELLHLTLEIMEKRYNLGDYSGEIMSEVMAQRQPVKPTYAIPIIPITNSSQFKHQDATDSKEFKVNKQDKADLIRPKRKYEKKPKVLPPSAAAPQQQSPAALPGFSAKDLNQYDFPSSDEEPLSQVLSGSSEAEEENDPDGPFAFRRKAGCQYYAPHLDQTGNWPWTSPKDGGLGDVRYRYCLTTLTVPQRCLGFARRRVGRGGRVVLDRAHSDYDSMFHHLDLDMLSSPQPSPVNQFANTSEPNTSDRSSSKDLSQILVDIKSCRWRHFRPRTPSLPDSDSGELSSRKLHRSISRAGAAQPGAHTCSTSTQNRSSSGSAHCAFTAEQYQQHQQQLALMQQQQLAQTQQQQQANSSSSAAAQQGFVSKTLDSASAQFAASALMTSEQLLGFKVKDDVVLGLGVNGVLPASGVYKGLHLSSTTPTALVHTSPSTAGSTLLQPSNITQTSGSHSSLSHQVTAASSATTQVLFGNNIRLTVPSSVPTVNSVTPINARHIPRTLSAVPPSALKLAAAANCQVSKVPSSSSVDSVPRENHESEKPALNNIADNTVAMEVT
# UniProt Q8VEK6: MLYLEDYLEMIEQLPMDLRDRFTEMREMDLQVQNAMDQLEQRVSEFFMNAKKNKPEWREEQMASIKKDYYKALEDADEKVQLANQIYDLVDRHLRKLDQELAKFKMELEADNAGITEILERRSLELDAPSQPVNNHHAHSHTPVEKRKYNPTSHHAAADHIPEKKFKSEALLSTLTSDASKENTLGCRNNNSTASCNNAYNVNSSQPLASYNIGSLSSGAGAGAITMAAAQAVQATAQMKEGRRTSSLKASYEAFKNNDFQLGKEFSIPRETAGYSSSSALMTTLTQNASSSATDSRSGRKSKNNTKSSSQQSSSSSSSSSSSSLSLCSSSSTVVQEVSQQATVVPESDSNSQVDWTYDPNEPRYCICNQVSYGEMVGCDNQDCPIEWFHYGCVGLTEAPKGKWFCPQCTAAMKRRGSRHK
# UniProt Q9R0Q4: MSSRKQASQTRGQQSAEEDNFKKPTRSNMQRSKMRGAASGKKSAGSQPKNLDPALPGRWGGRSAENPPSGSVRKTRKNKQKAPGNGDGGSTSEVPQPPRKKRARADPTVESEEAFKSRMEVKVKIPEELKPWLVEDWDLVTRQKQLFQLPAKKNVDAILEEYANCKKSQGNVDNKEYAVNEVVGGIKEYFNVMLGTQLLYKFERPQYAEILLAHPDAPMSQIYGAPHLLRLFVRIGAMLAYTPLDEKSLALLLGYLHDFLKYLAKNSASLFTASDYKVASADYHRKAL
# UniProt P60122: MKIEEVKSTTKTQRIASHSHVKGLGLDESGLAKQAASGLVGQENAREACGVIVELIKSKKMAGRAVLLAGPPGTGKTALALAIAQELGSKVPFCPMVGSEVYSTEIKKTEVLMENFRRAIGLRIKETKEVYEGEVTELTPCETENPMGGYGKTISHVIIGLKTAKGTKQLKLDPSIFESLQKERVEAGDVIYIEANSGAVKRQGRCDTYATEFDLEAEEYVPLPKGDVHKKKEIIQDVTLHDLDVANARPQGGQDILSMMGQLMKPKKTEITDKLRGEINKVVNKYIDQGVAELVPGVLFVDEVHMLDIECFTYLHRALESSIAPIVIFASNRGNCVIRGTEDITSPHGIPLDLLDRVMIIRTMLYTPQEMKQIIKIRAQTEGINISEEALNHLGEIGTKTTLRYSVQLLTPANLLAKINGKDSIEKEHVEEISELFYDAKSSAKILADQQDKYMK
# UniProt Q91VJ4: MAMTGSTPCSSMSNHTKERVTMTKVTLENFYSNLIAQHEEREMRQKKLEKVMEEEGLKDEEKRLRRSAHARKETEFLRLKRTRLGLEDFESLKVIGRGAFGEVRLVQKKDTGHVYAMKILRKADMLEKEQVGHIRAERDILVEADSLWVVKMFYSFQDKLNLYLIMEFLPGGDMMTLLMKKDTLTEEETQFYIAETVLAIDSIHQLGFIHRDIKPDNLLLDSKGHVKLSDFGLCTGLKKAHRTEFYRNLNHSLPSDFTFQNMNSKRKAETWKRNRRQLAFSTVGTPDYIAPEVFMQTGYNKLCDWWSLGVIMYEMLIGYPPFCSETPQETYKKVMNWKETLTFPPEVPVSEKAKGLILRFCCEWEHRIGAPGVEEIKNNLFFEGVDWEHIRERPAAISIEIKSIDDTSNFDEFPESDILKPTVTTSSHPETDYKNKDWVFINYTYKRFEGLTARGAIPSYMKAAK
# UniProt Q80YV3: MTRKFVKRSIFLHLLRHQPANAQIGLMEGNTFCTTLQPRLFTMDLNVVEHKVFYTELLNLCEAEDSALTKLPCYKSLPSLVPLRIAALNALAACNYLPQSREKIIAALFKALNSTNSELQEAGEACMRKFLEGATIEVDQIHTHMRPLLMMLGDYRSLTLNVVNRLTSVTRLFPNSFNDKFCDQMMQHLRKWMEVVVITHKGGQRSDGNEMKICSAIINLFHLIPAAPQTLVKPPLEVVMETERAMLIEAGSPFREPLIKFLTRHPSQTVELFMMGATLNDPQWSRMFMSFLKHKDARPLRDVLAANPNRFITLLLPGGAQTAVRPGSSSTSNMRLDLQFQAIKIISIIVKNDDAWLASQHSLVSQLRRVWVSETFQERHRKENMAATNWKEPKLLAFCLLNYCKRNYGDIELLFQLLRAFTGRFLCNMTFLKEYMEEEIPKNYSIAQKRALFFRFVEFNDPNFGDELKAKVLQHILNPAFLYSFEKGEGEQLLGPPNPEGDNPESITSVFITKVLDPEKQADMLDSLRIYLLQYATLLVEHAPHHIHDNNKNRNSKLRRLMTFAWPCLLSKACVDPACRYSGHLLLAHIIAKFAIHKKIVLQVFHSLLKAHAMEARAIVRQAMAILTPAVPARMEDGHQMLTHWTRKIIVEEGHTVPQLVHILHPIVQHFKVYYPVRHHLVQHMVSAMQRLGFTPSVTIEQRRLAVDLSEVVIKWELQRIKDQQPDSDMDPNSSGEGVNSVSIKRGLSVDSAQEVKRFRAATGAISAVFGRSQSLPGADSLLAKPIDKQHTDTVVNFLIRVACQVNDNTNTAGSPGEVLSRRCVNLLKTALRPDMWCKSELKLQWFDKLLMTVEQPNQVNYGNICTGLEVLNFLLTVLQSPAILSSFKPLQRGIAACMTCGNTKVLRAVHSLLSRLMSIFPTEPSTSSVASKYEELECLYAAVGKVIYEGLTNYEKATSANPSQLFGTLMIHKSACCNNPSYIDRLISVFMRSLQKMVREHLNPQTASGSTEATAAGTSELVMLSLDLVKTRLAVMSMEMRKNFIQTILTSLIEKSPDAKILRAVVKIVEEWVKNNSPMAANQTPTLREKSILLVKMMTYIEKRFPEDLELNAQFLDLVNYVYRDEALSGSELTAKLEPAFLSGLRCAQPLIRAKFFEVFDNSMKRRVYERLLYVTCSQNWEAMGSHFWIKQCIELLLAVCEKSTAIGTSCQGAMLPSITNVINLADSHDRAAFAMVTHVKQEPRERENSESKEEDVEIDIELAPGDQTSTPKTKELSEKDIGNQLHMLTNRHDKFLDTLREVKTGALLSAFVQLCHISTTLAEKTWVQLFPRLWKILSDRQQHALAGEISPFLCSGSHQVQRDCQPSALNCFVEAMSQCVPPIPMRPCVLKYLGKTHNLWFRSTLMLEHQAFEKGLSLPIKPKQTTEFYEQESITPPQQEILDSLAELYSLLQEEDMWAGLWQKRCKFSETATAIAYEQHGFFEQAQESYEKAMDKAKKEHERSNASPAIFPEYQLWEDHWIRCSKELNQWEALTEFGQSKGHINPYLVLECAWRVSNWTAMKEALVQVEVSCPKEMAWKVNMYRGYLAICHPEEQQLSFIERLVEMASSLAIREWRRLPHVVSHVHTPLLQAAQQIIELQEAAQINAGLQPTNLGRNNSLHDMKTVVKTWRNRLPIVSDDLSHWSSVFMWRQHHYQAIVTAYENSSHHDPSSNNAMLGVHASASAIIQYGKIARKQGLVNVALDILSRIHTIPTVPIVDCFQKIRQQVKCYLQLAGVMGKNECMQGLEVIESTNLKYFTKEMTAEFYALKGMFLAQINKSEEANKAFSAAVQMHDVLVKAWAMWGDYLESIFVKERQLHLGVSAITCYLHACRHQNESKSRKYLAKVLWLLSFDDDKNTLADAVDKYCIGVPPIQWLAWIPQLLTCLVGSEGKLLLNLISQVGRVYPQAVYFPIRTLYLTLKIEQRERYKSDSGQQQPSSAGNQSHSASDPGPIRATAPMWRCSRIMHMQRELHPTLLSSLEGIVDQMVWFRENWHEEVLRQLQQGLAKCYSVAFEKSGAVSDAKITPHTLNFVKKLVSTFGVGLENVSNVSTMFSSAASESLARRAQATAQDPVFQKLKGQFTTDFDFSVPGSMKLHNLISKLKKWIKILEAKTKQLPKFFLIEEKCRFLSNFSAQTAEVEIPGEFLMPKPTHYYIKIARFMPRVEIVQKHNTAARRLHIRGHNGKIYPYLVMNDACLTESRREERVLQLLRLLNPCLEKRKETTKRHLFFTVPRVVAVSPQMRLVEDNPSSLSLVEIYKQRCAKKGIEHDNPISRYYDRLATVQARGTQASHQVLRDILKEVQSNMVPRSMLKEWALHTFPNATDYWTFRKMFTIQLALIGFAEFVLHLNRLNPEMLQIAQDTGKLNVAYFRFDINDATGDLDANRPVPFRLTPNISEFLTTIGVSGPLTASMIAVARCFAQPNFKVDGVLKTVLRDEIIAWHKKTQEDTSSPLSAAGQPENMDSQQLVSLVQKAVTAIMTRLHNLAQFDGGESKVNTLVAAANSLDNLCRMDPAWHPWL
# UniProt Q9CR11: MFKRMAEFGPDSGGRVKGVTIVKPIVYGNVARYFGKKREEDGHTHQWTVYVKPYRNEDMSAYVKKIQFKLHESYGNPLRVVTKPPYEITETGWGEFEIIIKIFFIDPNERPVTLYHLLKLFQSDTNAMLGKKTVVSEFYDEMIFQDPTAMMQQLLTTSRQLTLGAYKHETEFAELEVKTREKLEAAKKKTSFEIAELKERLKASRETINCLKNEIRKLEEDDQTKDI
# Biological target: Tip60-H3F (Tip60 with a C-terminal 6-histidine-3-FLAG tag, from the endogenous gene) in ESCs (mouse (endogenous in ESCs)) (UniProt Q8CHK4)
# Test: affinity purification with mass spectrometry; double affinity purification (FLAG-M2 Agarose, then TALON Agarose) of Tip60-H3F from ESC nuclear extracts, untagged cells as control; SDS-PAGE, in-gel digestion, LC-MS/MS
row,binding,Molecule
1,binds,E1A-binding protein p400 (from UniProt Q8CHI8 1-3072)
2,binds,Leucine-rich repeat flightless-interacting protein 2 (from UniProt Q91WK0 1-415)
3,binds,MRG-binding protein (from UniProt Q9DAT2 1-204)
4,binds,RuvB-like 2 (from UniProt Q9WTM5 1-463)
5,binds,"Spectrin alpha chain, brain (from UniProt P16546 1-2472)"
6,binds,"Spectrin beta chain, brain 1 (from UniProt Q62261 1-2363)"
7,binds,Tubulin beta-5 chain (from UniProt P99024 1-444)

# Continued, molecule first:
row,Molecule,binding
1,DNA methyltransferase 1-associated protein 1 (from UniProt Q9JI44 1-468),binds
2,Enhancer of polycomb homolog 1 (from UniProt Q8C9X6 1-813),binds
3,Enhancer of polycomb homolog 2 (from UniProt Q8C0I4 1-808),binds
4,Inhibitor of growth protein 3 (from UniProt Q8VEK6 1-421),binds
5,LIM domain and actin-binding protein 1 (from UniProt Q9ERG0 1-753),binds
6,Mortality factor 4-like protein 2 (from UniProt Q9R0Q4 1-288),binds
7,Probable helicase senataxin (from UniProt A2AKX3 1-2646),binds
8,RuvB-like 1 (from UniProt P60122 1-456),binds
9,Serine/threonine-protein kinase 38 (from UniProt Q91VJ4 1-465),binds
10,Transformation/transcription domain-associated protein (from UniProt Q80YV3 1-2565),binds
11,Vacuolar protein sorting-associated protein 72 homolog (from UniProt Q62481 1-368),binds
12,YEATS domain-containing protein 4 (from UniProt Q9CR11 1-227),binds
13,"Ras-related protein Rab-5C (protein, UniProt P35278 1-216) MAGRGGAARPNGPAAGNKICQFKLVLLGESAVGKSSLVLRFVKGQFHEYQESTIGAAFLTQTVCLDDTTVKFEIWDTAGQERYHSLAPMYYRGAQAAIVVYDITNTDTFARAKNWVKELQRQASPNIVIALAGNKADLASKRAVEFQEAQAYADDNSLLFMETSAKTAMNVNEIFMAIAKKLPKNEPQNAAGAPGRTRGVDLQESNPASRSQCCSN",binds
14,"Splicing factor 3B subunit 1 (protein, UniProt Q99NB9 1-1304) MAKIAKTHEDIEAQIREIQGKKAALDEAQGVGLDSTGYYDQEIYGGSDSRFAGYVTSIAATELEDDDDDYSSSTSLLGQKKPGYHAPVALLNDIPQSTEQYDPFAEHRPPKIADREDEYKKHRRTMIISPERLDPFADGGKTPDPKMNARTYMDVMREQHLTKEEREIRQQLAEKAKAGELKVVNGAAASQPPSKRKRRWDQTADQTPGATPKKLSSWDQAETPGHTPSLRWDETPGRAKGSETPGATPGSKIWDPTPSHTPAGAATPGRGDTPGHATPGHGGATSSARKNRWDETPKTERDTPGHGSGWAETPRTDRGGDSIGETPTPGASKRKSRWDETPASQMGGSTPVLTPGKTPIGTPAMNMATPTPGHIMSMTPEQLQAWRWEREIDERNRPLSDEELDAMFPEGYKVLPPPAGYVPIRTPARKLTATPTPLGGMTGFHMQTEDRTMKSVNDQPSGNLPFLKPDDIQYFDKLLVDVDESTLSPEEQKERKIMKLLLKIKNGTPPMRKAALRQITDKAREFGAGPLFNQILPLLMSPTLEDQERHLLVKVIDRILYKLDDLVRPYVHKILVVIEPLLIDEDYYARVEGREIISNLAKAAGLATMISTMRPDIDNMDEYVRNTTARAFAVVASALGIPSLLPFLKAVCKSKKSWQARHTGIKIVQQIAILMGCAILPHLRSLVEIIEHGLVDEQQKVRTISALAIAALAEAATPYGIESFDSVLKPLWKGIRQHRGKGLAAFLKAIGYLIPLMDAEYANYYTREVMLILIREFQSPDEEMKKIVLKVVKQCCGTDGVEANYIKTEILPPFFKHFWQHRMALDRRNYRQLVDTTVELANKVGAAEIISRIVDDLKDEAEQYRKMVMETIEKIMGNLGAADIDHKLEEQLIDGILYAFQEQTTEDSVMLNGFGTVVNALGKRVKPYLPQICGTVLWRLNNKSAKVRQQAADLISRTAVVMKTCQEEKLMGHLGVVLYEYLGEEYPEVLGSILGALKAIVNVIGMHKMTPPIKDLLPRLTPILKNRHEKVQENCIDLVGRIADRGAEYVSAREWMRICFELLELLKAHKKAIRRATVNTFGYIAKAIGPHDVLATLLNNLKVQERQNRVCTTVAIAIVAETCSPFTVLPALMNEYRVPELNVQNGVLKSLSFLFEYIGEMGKDYIYAVTPLLEDALMDRDLVHRQTASAVVQHMSLGVYGFGCEDSLNHLLNYVWPNVFETSPHVIQAVMGALEGLRVAIGPCRMLQYCLQGLFHPARKVRDVYWKIYNSIYIGSQDALIAHYPRIYNDDKNTYIRYDLDYIL",binds
15,"Ran GTPase-activating protein 1 (protein, UniProt P46061 1-589) MASEDIAKLAETLAKTQVAGGQLSFKGKGLKLNTAEDAKDVIKEIEEFDGLEALRLEGNTVGVEAARVIAKALEKKSELKRCHWSDMFTGRLRSEIPPALISLGEGLITAGAQLVELDLSDNAFGPDGVRGFEALLKSPACFTLQELKLNNCGMGIGGGKILAAALTECHRKSSAQGKPLALKVFVAGRNRLENDGATALAEAFGIIGTLEEVHMPQNGINHPGVTALAQAFAINPLLRVINLNDNTFTEKGGVAMAETLKTLRQVEVINFGDCLVRSKGAVAIADAVRGGLPKLKELNLSFCEIKRDAALVVAEAVADKAELEKLDLNGNALGEEGCEQLQEVMDSFNMAKVLASLSDDEGEDEDEEEEGEEDDEEEEDEEDEEDDDEEEEEQEEEEEPPQRGSGEEPATPSRKILDPNSGEPAPVLSSPTPTDLSTFLSFPSPEKLLRLGPKVSVLIVQQTDTSDPEKVVSAFLKVASVFRDDASVKTAVLDAIDALMKKAFSCSSFNSNTFLTRLLIHMGLLKSEDKIKAIPSLHGPLMVLNHVVRQDYFPKALAPLLLAFVTKPNGALETCSFARHNLLQTLYNI",binds
16,"Splicing factor, proline- and glutamine-rich (protein, UniProt Q8VIJ6 1-699) MSRDRFRSRGGGGGGFHRRGGGGGRGGLHDFRSPPPGMGLNQNRGPMGPGPGGPKPPLPPPPPHQQQQQPPPQQPPPQQPPPHQQPPPHQPPHQQPPPPPQESKPVVPQGPGSAPGVSSAPPPAVSAPPANPPTTGAPPGPGPTPTPPPAVPSTAPGPPPPSTPSSGVSTTPPQTGGPPPPPAGGAGPGPKPGPGPGGPKGGKMPGGPKPGGGPGMGAPGGHPKPPHRGGGEPRGGRQHHAPYHQQHHQGPPPGGPGPRTEEKISDSEGFKANLSLLRRPGEKTYTQRCRLFVGNLPADITEDEFKRLFAKYGEPGEVFINKGKGFGFIKLESRALAEIAKAELDDTPMRGRQLRVRFATHAAALSVRNLSPYVSNELLEEAFSQFGPIERAVVIVDDRGRSTGKGIVEFASKPAARKAFERCSEGVFLLTTTPRPVIVEPLEQLDDEDGLPEKLAQKNPMYQKERETPPRFAQHGTFEYEYSQRWKSLDEMEKQQREQVEKNMKDAKDKLESEMEDAYHEHQANLLRQDLMRRQEELRRMEELHSQEMQKRKEMQLRQEEERRRREEEMMIRQREMEEQMRRQREESYSRMGYMDPRERDMRMGGGGTMNMGDPYGSGGQKFPPLGGGGGIGYEANPGVPPATMSGSMMGSDMRTERFGQGGAGPVGGQGPRGMGPGTPAGYGRGREEYEGPNKKPRF",binds

# No constants are given. Whether binding was seen depends on the method and setting. In cells and extracts the contact can be indirect. These calls come from enrichment with a bait or labelling near it, and not all partners need be listed.
